Assay results published in PMC9192718.
Results are given in words; binding and its absence hold for the method and conditions named. Some results given as binding are weak or reduced against the parent protein; the word gives no strength. Tags and fused reporters may be left off the sequences shown.

Assays:
Assay in all cases: two-hybrid; systematic, reciprocal; LexA DNA-binding domain (pMM5) and Gal4 activation domain (pMM6) fusions in mated budding yeast SGY37 and YPH500; X-Gal overlay, scanned after 16 hr
[1] = biological target: T1, Schizosaccharomyces pombe Vps28 (ESCRT-I), yeast two-hybrid fusion (Schizosaccharomyces pombe) (UniProt O13872)
T1 sequence: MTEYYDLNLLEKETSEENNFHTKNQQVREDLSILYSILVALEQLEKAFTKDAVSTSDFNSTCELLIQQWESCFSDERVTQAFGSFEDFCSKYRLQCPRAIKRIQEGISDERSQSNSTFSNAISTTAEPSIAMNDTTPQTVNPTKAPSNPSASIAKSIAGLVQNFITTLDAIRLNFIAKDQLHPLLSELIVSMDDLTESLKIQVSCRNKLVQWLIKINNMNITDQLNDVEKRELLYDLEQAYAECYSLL

[2] = biological target: T2, Schizosaccharomyces pombe Vps25 (ESCRT-II), yeast two-hybrid fusion (Schizosaccharomyces pombe) (UniProt O74967)
T2 sequence: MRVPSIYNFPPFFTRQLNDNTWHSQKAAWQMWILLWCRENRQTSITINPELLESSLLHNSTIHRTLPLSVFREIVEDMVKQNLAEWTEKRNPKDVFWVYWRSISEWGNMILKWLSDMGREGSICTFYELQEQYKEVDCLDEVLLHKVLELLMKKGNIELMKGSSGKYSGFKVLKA

[3] = biological target: T3, Schizosaccharomyces pombe Did4 (ESCRT-III), yeast two-hybrid fusion (Schizosaccharomyces pombe) (UniProt O14177)
T3 sequence: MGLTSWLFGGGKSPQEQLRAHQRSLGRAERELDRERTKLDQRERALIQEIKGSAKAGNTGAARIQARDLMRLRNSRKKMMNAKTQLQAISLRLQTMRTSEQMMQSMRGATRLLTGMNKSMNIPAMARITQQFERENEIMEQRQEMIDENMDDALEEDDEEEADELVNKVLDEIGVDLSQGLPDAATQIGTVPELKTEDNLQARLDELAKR

[4] = biological target: T4, Schizosaccharomyces pombe Vps36 (ESCRT-II), yeast two-hybrid fusion (Schizosaccharomyces pombe) (UniProt O43038)
T4 sequence: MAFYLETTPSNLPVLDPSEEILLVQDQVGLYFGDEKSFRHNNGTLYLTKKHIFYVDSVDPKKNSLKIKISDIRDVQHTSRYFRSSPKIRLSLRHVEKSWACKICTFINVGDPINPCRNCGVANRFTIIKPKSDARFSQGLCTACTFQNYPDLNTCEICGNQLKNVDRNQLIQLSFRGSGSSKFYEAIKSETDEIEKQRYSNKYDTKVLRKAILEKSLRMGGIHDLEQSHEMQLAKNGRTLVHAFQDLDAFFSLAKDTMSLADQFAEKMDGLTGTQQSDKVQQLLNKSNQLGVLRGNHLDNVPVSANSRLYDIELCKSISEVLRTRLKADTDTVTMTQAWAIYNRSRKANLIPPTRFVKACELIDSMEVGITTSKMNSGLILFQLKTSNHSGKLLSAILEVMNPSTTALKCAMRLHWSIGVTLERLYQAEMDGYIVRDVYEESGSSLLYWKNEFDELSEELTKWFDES

B1: Schizosaccharomyces pombe Sst6 (ESCRT-I), yeast two-hybrid fusion (protein, UniProt Q7Z992 1-487)
chain: MSDHAINEHPSRILNTIEKIRFWKNGLAEELELLFRKQCEDTFTLQAINIEVDTQDENKIEEVRIYLSTPAFDKTILTSACITVRSYYPSQPPIVQLLDEKGGKHKYTSLLLQLWKNERSVFNIYRLVQALIKQDFEREHTSPPELPTKLVNTIEKLKVKEENEAPPVIPAKPFSSSSEQHFRKVPALPSKLPPKPLKITANSSLGQETNSNSSSFQSTLFSLNTAPFSATSQQLVHDSVSLRRPSSNIPAQKPIPPKPEQNEIIITKDTPSLKDKYSKPALLPQKPKVSKGQIVQQVSVFSTGKKIESQSLLNLIDTDIETPLKGSSELLYSEDFKPNVDPVKIQQILHKQNKIIEEKWISQIRISKNLEVKQRLLDQERHALETLAKNIENNRFILGKRRRKAREALQKLDNLKDLSVQELFIIPSERELKYYELKRKDEKLDEGIRALNQALHHESIMPASWLKGIKLLARQQFLIRDEMLQYS
- binding [1]: binds

B2: Schizosaccharomyces pombe Vps36 (ESCRT-II), yeast two-hybrid fusion (protein, UniProt O43038 1-467)
chain: T4 sequence
- binding [2]: binds

B3: Schizosaccharomyces pombe Vps24 (ESCRT-III), yeast two-hybrid fusion (protein, UniProt O14296 1-231)
chain: MQTVRSYFFGPTPQEQNRKWQSIIRKEQRQLDRQVYHLKAGRKKAEVQLKQLAKQSDITNMRILAKEIARANRHGKRLAESKALLGSLSLQLNDQMAMLKIQGTMQSSTKIMQDVSSLIRLPQLSETMRNLSMELTKAGVLEEMRDEMFLPVEDDEELMDLADEDEEVQEILTKYNVIPAPSEKAADAATHREQSLKQALPSLSNGIAKDSTEIDEEQLLDIRDKLDALKS
- binding [3]: binds

B4: Schizosaccharomyces pombe Vps28 (ESCRT-I), yeast two-hybrid fusion (protein, UniProt O13872 1-248)
chain: T1 sequence
- binding [4]: binds

B5: Schizosaccharomyces pombe Vps20 (ESCRT-III), yeast two-hybrid fusion (protein, UniProt O94318 1-226)
chain: MGVNSSKINDKDRSILSIKEQRDKLLRYSKRLEKIEQLEIDIARKCLRDSDKRGALRALKAKKLYSGLITQTYGQLGNIEQLLSTIEFTLIQKDVMFGLQEGTNLIRQLQADMPLERVGRICNDRDEAMSYVDEVNDMLQGRMSRDQEDEIQEELDSLIREQEDEKVKDLEKPGFTPSTGVDVLPSVPLKNAIPSLDESFPKAASVSNTSSAVVIDEELRKDPVLG
- binding [2]: binds
